# From PubChem BioAssay (EPA / NIEHS)
# Chains of the proteins cited; added tags and fusions are not shown. Lines headed by an entry give the natural chain unless they say otherwise; changes in a name come on top.
# UniProt P19793: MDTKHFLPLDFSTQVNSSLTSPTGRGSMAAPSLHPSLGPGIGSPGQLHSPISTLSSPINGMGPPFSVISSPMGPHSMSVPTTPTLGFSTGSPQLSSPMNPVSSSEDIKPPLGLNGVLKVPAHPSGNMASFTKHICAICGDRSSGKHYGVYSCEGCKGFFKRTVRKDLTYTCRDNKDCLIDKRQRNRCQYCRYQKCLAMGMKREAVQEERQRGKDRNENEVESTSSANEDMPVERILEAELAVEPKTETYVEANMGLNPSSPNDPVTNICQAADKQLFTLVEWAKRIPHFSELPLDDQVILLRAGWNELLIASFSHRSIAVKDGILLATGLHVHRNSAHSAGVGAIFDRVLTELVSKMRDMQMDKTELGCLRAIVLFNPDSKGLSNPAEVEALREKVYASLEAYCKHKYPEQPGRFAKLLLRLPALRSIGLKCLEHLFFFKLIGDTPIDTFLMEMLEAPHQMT
# Values joined by “and” are separate entries in the source; they are usually repeats but may differ in a detail not shown here. Identical values can stand only once. The inconclusive results got no clear call from the source; some entries with a clear call stand among them for comparison. Potencies of inconclusive entries are doubtful fits and often do not repeat. The source holds several records for some structures; these can differ, active in one and inactive in another. Active and inactive are the calls of the source. How the source made its calls: active means hit-call score of the fitted dose curve at least 0.9, where 1 is the maximum; inconclusive means response in the unintended direction; inactive means score below 0.9.
# Target: Retinoic acid receptor RXR-alpha (Homo sapiens) (UniProt P19793)
# Assay: OT_NURR1_NURR1RXRa_1440: Odyssey Thera (OT) 24-hour HEK293T Protein Complementation Assay for Nurr1/retinoid X receptor (RXR) (AID 2283386)
# Outline: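 Steps: fragment-tagged Nurr1 and RXRα expressed in HEK293T; compounds added; after 24 h, complemented reporter quantified by fluorescence intensity; signal increase over DMSO fitted as the single endpoint.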
Compound,outcome,AC50
Cc1cccc(Nc2cc(Cl)nc(SCC(=O)O)n2)c1C,inactive,
O=C(O)CC(C(=O)O)S(=O)(=O)O (stereo not drawn),inactive,
CCCCCCCC/C=C\CCCCCCCC(=O)N(C)CC(=O)O,,inconclusive: 50 µM
O=C1O[C@H]([C@@H](O)CO)C(O)=C1O,inactive,
CCCCCCCCCCCCN1CCOCC1,,active: 80.4 µM
COCCOCCOCCO,inactive,
CCCCOC(=O)[C@H](C)O,inactive,
Sc1nc2ccccc2s1,,inconclusive: 50 µM
CCCCCCC(=O)O,,inconclusive: 50 µM
CC1(C)NC(=O)NC1=O,inactive,
C=C[Si]1(C)O[Si](C)(C=C)O[Si](C)(C=C)O[Si](C)(C=C)O1 (stereo not drawn),inactive,
CCCN(CCC)C(=O)SCC,,inconclusive: 50 µM
CCCCC(CC)COC(=O)/C=C\C(=O)OCC(CC)CCCC (stereo not drawn),,active: 50 µM
CCCCCCCCN1CCCC1=O,inactive,
CCN(CC)CCOC(=O)c1ccc(N)cc1,,inconclusive: 43.2 µM
CC(C)CC(C)CC(O)CC(C)C (stereo not drawn),inactive,
CCCCCCC(=O)OCC,,inconclusive: 50 µM
CC(C)(C)c1cc(O)c(C(C)(C)C)cc1O,,active: 33.3 µM
CCCCCCCCCCCCCCCCCC(=O)OCC(CC)CCCC (stereo not drawn),inactive,

Compound,outcome,AC50
Cc1c(C(=O)c2c[nH]n(C)c2=O)ccc(S(C)(=O)=O)c1C1=NOCC1,inactive,
c1ccc(OCCOc2ccccc2)cc1,,inconclusive: 50 µM
CCCCOC(=O)C(C)O (stereo not drawn),,inconclusive: 50 µM
Cc1ccc2ncccc2c1,,inconclusive: 11.7 µM and inconclusive: 50 µM
CN(C)C,,inconclusive: 9.92 µM
Cc1ccc(C)c(O)c1,,inconclusive: 51 µM
CCc1nn(C2CCCCC2)c2cc(C3(C#N)CCC(C(=O)O)CC3)ccc12 (stereo not drawn),,active: 79.7 µM and active: 73.6 µM
O=S(=O)(O)c1ccc(N=Nc2c(O)ccc3ccccc23)cc1,inactive,
CCCCOC(=O)CC(CC(=O)OCCCC)(OC(C)=O)C(=O)OCCCC,,inconclusive: 3.11 µM
CCOC(=O)c1ccc(N)cc1,,active: 31.8 µM
OCc1ccccc1,inactive,
Nc1cccc(N)c1,inactive,
CC(C)OC=O,inactive,
FC(F)(F)C(F)(F)C(F)(F)C(F)(F)C(F)(F)C(F)(F)CCI,inactive,
O=c1c(O)c(-c2ccc(O)cc2)oc2cc(O)cc(O)c12,inactive,
CCOC(=O)C1CC(=O)C(=C(O)C2CC2)C(=O)C1 (stereo not drawn),inactive,
OC[C@@H](O)[C@@H](O)[C@H](O)[C@@H](O)CO,inactive,
COc1ccc(C)cc1N,,inconclusive: 50 µM
CCCCCOC(=O)CCC,,inconclusive: 50 µM

# Test system: not listed separately
# Assay: ATG_XTT_Cytotoxicity: Cytotoxicity Assessment in the Attagene TRANS-FACTORIAL HepG2 Assay (AID 2283584);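 on AC50: cells exposed to compound for 24 h before reading; active means loss of viability signal versus DMSO baseline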
# Outline: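 XTT readout of cell number in transfected HepG2 cells, 24 h post-dosing; DMSO serves as negative control and baseline, with activity taken as loss of viability signal.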
Compound,AC50,outcome
COCCOCCOCCO,inconclusive: 100 µM,
CCCCCCC(=O)O,,inactive
C=C[Si]1(C)O[Si](C)(C=C)O[Si](C)(C=C)O[Si](C)(C=C)O1 (stereo not drawn),,inactive
CCCCC(CC)COC(=O)/C=C\C(=O)OCC(CC)CCCC (stereo not drawn),,inactive
CCCCCCCCN1CCCC1=O,inconclusive: 100 µM,
CC(C)(C)c1cc(O)c(C(C)(C)C)cc1O,inconclusive: 100 µM and inconclusive: 22.6 µM,
Cc1c(C(=O)c2c[nH]n(C)c2=O)ccc(S(C)(=O)=O)c1C1=NOCC1,,inactive
Cc1ccc2ncccc2c1,,inactive
Cc1ccc(C)c(O)c1,,inactive
O=S(=O)(O)c1ccc(N=Nc2c(O)ccc3ccccc23)cc1,inconclusive: 100 µM,
CCCCOC(=O)CC(CC(=O)OCCCC)(OC(C)=O)C(=O)OCCCC,,inactive
OCc1ccccc1,inconclusive: 100 µM and inconclusive: 6.46 µM,
CCOC(=O)C1CC(=O)C(=C(O)C2CC2)C(=O)C1 (stereo not drawn),inconclusive: 0.009 µM,
CCCCCOC(=O)CCC,inconclusive: 100 µM,

# Test system: not listed separately
# Assay: TOX21_p53_BLA_p2_viability: Viability Assessment in the Tox21 HCT-116 p53 Agonism Beta-lactamase Assay, Phase 2 (AID 2283591);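 further: compound exposure lasted 16 h at 37 °C; actives lower the ATP signal meaning cytotoxicity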
# Outline: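 HCT116 p53-bla cells, 4000/well, dosed after 5 h plating (217-fold dilution of DMSO stocks) and incubated 16 h at 37C. Viability taken as cellular ATP by CellTiter-Glo luminescence after 30 min RT; signal loss marks cytotoxicity.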
Compound,AC50,outcome
Cc1cccc(Nc2cc(Cl)nc(SCC(=O)O)n2)c1C,inconclusive: 1.28 µM and inconclusive: 2.13 µM and inconclusive: 3.47 µM,
O=C(O)CC(C(=O)O)S(=O)(=O)O (stereo not drawn),inconclusive: 46.1 µM,
CCCCCCCC/C=C\CCCCCCCC(=O)N(C)CC(=O)O,active: 37.1 µM,
O=C1O[C@H]([C@@H](O)CO)C(O)=C1O,inconclusive: 0.253 nM and inconclusive: 50.4 µM,inactive
CCCCCCCCCCCCN1CCOCC1,inconclusive: 86.8 µM,
CCCCOC(=O)[C@H](C)O,inconclusive: 86.8 µM,
Sc1nc2ccccc2s1,active: 0.000211 µM,
CCCCCCC(=O)O,inconclusive: 0.668 nM and inconclusive: 76.9 µM,
CC1(C)NC(=O)NC1=O,inconclusive: 0.0874 µM,inactive
C=C[Si]1(C)O[Si](C)(C=C)O[Si](C)(C=C)O[Si](C)(C=C)O1 (stereo not drawn),inconclusive: 46.1 µM,
CCCN(CCC)C(=O)SCC,inconclusive: 46.1 µM and inconclusive: 47.8 µM,
CCCCC(CC)COC(=O)/C=C\C(=O)OCC(CC)CCCC (stereo not drawn),inconclusive: 46.1 µM,
CCCCCCCCN1CCCC1=O,inconclusive: 46.1 µM,
CCN(CC)CCOC(=O)c1ccc(N)cc1,inconclusive: 39.8 µM,inactive
CC(C)CC(C)CC(O)CC(C)C (stereo not drawn),inconclusive: 416 nM and inconclusive: 47.1 µM,
CCCCCCC(=O)OCC,inconclusive: 46.1 µM,
CCCCCCCCCCCCCCCCCC(=O)OCC(CC)CCCC (stereo not drawn),,inactive

Compound,AC50,outcome
Cc1c(C(=O)c2c[nH]n(C)c2=O)ccc(S(C)(=O)=O)c1C1=NOCC1,inconclusive: 0.00249 µM,
c1ccc(OCCOc2ccccc2)cc1,inconclusive: 46 µM,
CCCCOC(=O)C(C)O (stereo not drawn),inconclusive: 46.1 µM,
Cc1ccc2ncccc2c1,inconclusive: 46.1 µM,
CN(C)C,inconclusive: 46.1 µM and inconclusive: 8.43 nM,
Cc1ccc(C)c(O)c1,inconclusive: 47.2 µM and inconclusive: 45.1 µM,
CCc1nn(C2CCCCC2)c2cc(C3(C#N)CCC(C(=O)O)CC3)ccc12 (stereo not drawn),,inactive
CCOC(=O)c1ccc(N)cc1,inconclusive: 46.1 µM,
Nc1cccc(N)c1,inconclusive: 46 µM,
CC(C)OC=O,inconclusive: 0.00145 µM,
FC(F)(F)C(F)(F)C(F)(F)C(F)(F)C(F)(F)C(F)(F)CCI,inconclusive: 23 µM,
O=c1c(O)c(-c2ccc(O)cc2)oc2cc(O)cc(O)c12,inconclusive: 45.9 µM,
CCOC(=O)C1CC(=O)C(=C(O)C2CC2)C(=O)C1 (stereo not drawn),inconclusive: 46.1 µM,
OC[C@@H](O)[C@@H](O)[C@H](O)[C@@H](O)CO,,inactive
COc1ccc(C)cc1N,inconclusive: 46.1 µM and inconclusive: 44.8 µM,
CCCCCOC(=O)CCC,inconclusive: 46.1 µM,
